Experimental data: PubChem BioAssay AID602196 (INSERM, 2012)
Screen: 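Modifiers of cisplatin sensitivity in A549 cells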. Cells: human A549 lung cancer cells. Reagent: siRNA pair against human genes. Timing: 48 h transfection before cisplatin; time from cisplatin to read-out not stated. Treatment: cisplatin at a dose killing half of control-siRNA cells; exact dose and duration not given. Read-out: 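Cisplatin cell death as a shift from the 50% death seen with control siRNA; siRNAs toxic or growth-blocking alone scored 0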. Scale: two-siRNA summed score (-2 to +2): higher = both siRNAs protect from cisplatin killing; -2 means both sensitise. Call rule: 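siRNAs harmful alone (LDH or WST-1) get 0; others get +1 for less and -1 for more cisplatin killing; genes are active when the two siRNAs give the same sign, summing to ±2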. Calls: active = both siRNAs shift cisplatin killing the same way; inactive = no consistent shift, or siRNA harmful alone.
This is an unselected part of about 23,000 reagents. 455 of all reagents (2%) were called active. 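Active includes both protection and sensitisation; some change values fall well beyond the stated -50 to +50 range.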 Not all columns of the deposit are shown. Reagent sequences are not shown. The record does not give: the amount of reagent.

LILRA4 [SID131503629]
- two-siRNA summed score (-2 to +2): 0
- activity call: inactive

PP2D1 [SID131520859]
- two-siRNA summed score (-2 to +2): 1
- activity call: inactive

PRUNE1 [SID131515780]
- two-siRNA summed score (-2 to +2): 0
- activity call: inactive

LOC440414 [SID131521536]
- two-siRNA summed score (-2 to +2): 1
- activity call: inactive

SLC18A3 [SID131509012]
- two-siRNA summed score (-2 to +2): 0
- activity call: inactive

UBE2V2 [SID131504446]
- two-siRNA summed score (-2 to +2): 0
- activity call: inactive

MAGT1 [SID131500769]
- two-siRNA summed score (-2 to +2): -1
- activity call: inactive

C9orf78P2 [SID131509322]
- two-siRNA summed score (-2 to +2): 0
- activity call: inactive

RECQL4 [SID131502486]
- two-siRNA summed score (-2 to +2): -1
- activity call: inactive

KLF6 [SID131518607]
- two-siRNA summed score (-2 to +2): 0
- activity call: inactive

FAM8A1 [SID131504802]
- two-siRNA summed score (-2 to +2): 0
- activity call: inactive

CENPC [SID131515554]
- two-siRNA summed score (-2 to +2): 0
- activity call: inactive

PMAIP1 [SID131514293]
- two-siRNA summed score (-2 to +2): 0
- activity call: inactive

SHB [SID131520832]
- two-siRNA summed score (-2 to +2): 1
- activity call: inactive

LOC149934 [SID131512712]
- two-siRNA summed score (-2 to +2): 0
- activity call: inactive

ABHD16B [SID131501612]
- two-siRNA summed score (-2 to +2): -1
- activity call: inactive

COBL [SID131503784]
- two-siRNA summed score (-2 to +2): 0
- activity call: inactive

LOC440990 [SID131518731]
- two-siRNA summed score (-2 to +2): 0
- activity call: inactive

LOC441372 [SID131519609]
- two-siRNA summed score (-2 to +2): 1
- activity call: inactive

LINC01085 [SID131506883]
- two-siRNA summed score (-2 to +2): 0
- activity call: inactive

CPA2 [SID131502790]
- two-siRNA summed score (-2 to +2): -1
- activity call: inactive

Copied from the list.
Under “activity call”, LOC441372 [SID131519609] is entered as inactive
RECQL4 [SID131502486], activity call → inactive
